Paper PMC8546589
These are yes or no findings as the source states them, for the method shown. Binding seen in cells or lysates may run through a third protein. Sequences can lack the tags named with a protein.

How the values were obtained:
[1] = biological target: T1, GST-NAP07 (E. histolytica) (UniProt C4M608); assay: pull-down; GST-tagged bait bound from bacterial lysate to glutathione beads and washed; incubated with bacterial lysate containing the His-tagged prey, 15 min at room temperature then 1 h at 4°C; washed with GST-wash buffer (350 mM NaCl); eluted with glutathione; SDS-PAGE, Coomassie; only the target purified
T1 sequence: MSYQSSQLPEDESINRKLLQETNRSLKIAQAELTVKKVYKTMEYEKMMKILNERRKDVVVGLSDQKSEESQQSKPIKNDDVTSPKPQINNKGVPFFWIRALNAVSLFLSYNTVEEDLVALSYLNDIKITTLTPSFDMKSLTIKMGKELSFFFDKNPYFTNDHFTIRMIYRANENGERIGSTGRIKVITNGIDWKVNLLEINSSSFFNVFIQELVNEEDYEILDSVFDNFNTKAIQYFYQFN

[2] = biological target: T2, GST-NAP12 (E. histolytica) (UniProt C4M8H9); assay: as above
T2 sequence: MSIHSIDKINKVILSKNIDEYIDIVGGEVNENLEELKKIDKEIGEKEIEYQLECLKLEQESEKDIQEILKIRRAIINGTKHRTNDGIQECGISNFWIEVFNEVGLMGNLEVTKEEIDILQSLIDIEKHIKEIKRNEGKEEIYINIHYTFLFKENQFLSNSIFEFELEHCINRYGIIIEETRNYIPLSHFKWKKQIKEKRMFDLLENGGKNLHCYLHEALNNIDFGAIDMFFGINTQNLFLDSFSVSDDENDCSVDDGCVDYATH

[3] = biological target: T3, Myc-NAP07 (E. histolytica) (UniProt C4M608); assay: co-IP; anti-c-Myc agarose IP from whole-cell lysate of E. histolytica lines overexpressing the Myc-tagged protein, 2 h at 4°C; Western blot of the eluate (custom anti-EhAgo2-2, anti-actin, anti-histone 3)
T3 sequence: T1 sequence

[4] = biological target: T4, Myc-NAP12 (E. histolytica) (UniProt C4M8H9); assay: as above
T4 sequence: T2 sequence

binding [1] | binding [2] | binding [3] | binding [4] | Substance
no binding | no binding | – | – | His-ERM-BP (E. histolytica)
– | – | no binding | no binding | histone 3
